Laboratory results: paper PMC8295330
No constants are given. Whether binding was seen depends on the method and setting. Binding seen in cells or lysates may run through a third protein. Some binding calls cover weakened binding; strength is not graded here.

Molecular target: T1, PPM1G (Protein phosphatase, Mg2+/Mn2+ dependent 1 G) (human (endogenous in Hep3B)) (UniProt O15355)
T1 sequence: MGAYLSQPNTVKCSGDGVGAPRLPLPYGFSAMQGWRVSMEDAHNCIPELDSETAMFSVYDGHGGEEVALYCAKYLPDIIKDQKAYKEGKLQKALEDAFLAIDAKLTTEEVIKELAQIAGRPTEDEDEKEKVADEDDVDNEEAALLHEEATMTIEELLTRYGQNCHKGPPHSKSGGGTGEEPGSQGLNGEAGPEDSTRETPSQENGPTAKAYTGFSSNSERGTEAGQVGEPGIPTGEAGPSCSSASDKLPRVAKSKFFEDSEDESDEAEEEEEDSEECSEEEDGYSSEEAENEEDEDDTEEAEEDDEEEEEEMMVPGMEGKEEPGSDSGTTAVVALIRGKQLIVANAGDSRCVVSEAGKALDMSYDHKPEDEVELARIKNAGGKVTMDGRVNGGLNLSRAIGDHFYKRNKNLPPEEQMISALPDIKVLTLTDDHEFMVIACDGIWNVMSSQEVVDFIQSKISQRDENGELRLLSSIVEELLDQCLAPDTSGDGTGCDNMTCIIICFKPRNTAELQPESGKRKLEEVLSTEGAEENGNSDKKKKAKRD
Assay: co-IP; antibodies against PPM1G or SRSF3 for immunoprecipitation from cell lysate (Hep3B per the title of Fig. 5), IgG as negative control, about 2% input; lysis with 150 mM NaCl, 1% Triton X-100, washes with 350 mM NaCl; western blot

B1: SRSF3 (protein, UniProt P84103 1-164)
chain: MHRDSCPLDCKVYVGNLGNNGNKTELERAFGYYGPLRSVWVARNPPGFAFVEFEDPRDAADAVRELDGRTLCGCRVRVELSNGEKRSRNRGPPPSWGRRPRDDYRRRSPPPRRRSPRRRSFSRSRSRSLSRDRRRERSLSRERNHKPSRSFSRSRSRSRSNERK
- binding: binds
